PubChem BioAssay AID1259424 – University of Nebraska Medical Center, 2018
The whole screen tested about 14,000 reagents; shown is a part drawn at random. 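Higher correlation or smaller distance means closer resemblance to KSR1 loss; control wells, including KSR1 knockdowns, recur on many plates.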 Further read-outs or replicates are left out here. Not given: the time to read-out.

- Aim: 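Find knockdowns that reproduce the expression shifts seen after KSR1 loss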 (primary screen)
- Cells: human HCT116 colon cancer cells
- Reagent: siRNA pool against human genes, 50 nM
- Measurement: 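Six signature mRNAs by branched-DNA multiplex assay, scaled to two housekeeping genes and non-targeting median, log2; matched to mean KSR1 knockdown profile by Pearson correlation and euclidean distance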
- Reading the numbers: mean correlation with KSR1 profile: higher = expression change more like KSR1 knockdown

Gene	mean correlation with KSR1 profile
CMKLR1 (GeneID 1240)	0.35
ATP13A2 (GeneID 23400)	0.158
FNDC4 (GeneID 64838)	-0.473
ECE1 (GeneID 1889)	-0.333
GEMIN5 (GeneID 25929)	-0.203
GUCD1 (GeneID 83606)	0.381
RIT1 (GeneID 6016)	-0.0902
IFNB1 (GeneID 3456)	-0.0535
BCL9 (GeneID 607)	0.177
SCN4A (GeneID 6329)	-0.146
ALOX15 (GeneID 246)	-0.317
HOMEZ (GeneID 57594)	0.382

Continued (2 carried over from the part before).
Gene	mean correlation with KSR1 profile
ALOX15 (GeneID 246)	-0.317
HOMEZ (GeneID 57594)	0.382
GZMB (GeneID 3002)	0.466
XAGE2 (GeneID 9502)	-0.35
FOXC2 (GeneID 2303)	0.695
HS6ST1 (GeneID 9394)	-0.0348
GPR158 (GeneID 57512)	-0.0467
RDH14 (GeneID 57665)	-0.274
UNC79 (GeneID 57578)	-0.302
FBXL4 (GeneID 26235)	0.618
